From article PMC9088184

Amino acid sequences for entries named in this document (tags omitted). Residues count along the entry.
UniProt P49841: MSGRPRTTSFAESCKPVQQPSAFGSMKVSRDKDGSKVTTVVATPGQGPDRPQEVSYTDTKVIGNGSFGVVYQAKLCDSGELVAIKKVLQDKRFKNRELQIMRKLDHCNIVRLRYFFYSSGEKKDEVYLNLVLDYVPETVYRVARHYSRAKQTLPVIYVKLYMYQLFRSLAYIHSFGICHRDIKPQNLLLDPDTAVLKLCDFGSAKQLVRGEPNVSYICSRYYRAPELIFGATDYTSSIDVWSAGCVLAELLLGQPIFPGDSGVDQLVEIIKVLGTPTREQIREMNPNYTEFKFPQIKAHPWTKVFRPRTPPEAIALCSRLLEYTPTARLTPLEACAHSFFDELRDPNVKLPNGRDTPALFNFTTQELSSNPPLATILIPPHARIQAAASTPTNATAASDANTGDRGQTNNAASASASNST
UniProt Q9ULV4: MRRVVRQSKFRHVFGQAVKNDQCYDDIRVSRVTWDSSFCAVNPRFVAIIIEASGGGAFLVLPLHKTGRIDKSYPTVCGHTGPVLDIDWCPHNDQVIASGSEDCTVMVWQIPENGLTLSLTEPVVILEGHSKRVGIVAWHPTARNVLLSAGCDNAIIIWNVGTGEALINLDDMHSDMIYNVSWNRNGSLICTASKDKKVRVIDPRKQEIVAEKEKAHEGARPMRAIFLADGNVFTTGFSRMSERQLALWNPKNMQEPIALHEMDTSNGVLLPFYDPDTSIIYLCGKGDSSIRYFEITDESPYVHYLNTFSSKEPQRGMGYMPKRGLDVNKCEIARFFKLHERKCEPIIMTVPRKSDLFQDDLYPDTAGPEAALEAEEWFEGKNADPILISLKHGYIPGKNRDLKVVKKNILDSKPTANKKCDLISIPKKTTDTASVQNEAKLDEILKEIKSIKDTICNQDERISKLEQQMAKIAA
UniProt P68871: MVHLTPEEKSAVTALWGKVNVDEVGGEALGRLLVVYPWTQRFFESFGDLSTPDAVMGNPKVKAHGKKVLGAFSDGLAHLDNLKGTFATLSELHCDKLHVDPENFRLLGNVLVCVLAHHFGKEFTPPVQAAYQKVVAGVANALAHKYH
UniProt P68104: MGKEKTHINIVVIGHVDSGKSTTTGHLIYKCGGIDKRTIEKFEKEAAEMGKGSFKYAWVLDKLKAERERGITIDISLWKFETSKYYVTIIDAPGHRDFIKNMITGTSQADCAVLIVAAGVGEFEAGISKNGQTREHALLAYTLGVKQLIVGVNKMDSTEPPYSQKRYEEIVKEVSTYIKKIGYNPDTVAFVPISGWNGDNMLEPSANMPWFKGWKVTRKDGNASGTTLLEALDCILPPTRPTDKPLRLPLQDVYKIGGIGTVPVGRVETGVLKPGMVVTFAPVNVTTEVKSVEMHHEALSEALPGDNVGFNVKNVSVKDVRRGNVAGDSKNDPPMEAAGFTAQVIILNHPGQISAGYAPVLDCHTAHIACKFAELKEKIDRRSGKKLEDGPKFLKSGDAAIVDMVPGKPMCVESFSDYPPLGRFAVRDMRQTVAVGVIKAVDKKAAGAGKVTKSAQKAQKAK
UniProt P01040: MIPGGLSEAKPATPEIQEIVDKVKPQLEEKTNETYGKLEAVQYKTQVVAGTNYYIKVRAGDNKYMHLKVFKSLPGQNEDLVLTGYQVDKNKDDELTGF
UniProt Q02413, residues 50-1049: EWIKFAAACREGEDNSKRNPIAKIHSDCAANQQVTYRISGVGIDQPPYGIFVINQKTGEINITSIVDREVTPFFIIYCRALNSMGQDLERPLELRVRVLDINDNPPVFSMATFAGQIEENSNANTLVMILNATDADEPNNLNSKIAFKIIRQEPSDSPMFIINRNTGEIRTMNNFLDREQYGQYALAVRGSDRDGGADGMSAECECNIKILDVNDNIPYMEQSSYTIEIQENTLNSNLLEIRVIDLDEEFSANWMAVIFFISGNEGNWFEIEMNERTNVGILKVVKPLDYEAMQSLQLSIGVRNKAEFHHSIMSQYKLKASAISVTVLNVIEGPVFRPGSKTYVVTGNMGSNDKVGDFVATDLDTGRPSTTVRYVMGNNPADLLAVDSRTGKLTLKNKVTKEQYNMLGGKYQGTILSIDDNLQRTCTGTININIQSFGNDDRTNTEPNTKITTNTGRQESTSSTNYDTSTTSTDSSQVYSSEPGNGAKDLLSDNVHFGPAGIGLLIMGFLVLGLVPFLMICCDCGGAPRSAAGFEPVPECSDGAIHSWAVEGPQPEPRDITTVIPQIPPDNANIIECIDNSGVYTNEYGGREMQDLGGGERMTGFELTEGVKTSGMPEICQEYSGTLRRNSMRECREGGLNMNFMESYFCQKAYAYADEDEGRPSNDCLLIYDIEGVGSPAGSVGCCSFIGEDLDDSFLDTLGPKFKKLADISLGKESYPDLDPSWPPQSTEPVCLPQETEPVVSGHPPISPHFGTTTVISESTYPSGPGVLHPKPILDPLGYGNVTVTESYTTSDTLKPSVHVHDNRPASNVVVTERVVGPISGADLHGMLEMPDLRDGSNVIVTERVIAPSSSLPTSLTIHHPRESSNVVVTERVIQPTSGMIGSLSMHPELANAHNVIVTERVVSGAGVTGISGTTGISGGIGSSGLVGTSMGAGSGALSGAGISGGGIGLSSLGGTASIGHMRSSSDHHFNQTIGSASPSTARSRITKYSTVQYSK
UniProt P60660: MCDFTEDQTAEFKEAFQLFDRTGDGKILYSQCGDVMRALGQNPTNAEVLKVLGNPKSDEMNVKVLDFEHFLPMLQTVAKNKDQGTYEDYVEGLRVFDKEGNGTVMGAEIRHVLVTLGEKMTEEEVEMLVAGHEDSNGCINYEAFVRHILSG
UniProt P02768, residues 25-609: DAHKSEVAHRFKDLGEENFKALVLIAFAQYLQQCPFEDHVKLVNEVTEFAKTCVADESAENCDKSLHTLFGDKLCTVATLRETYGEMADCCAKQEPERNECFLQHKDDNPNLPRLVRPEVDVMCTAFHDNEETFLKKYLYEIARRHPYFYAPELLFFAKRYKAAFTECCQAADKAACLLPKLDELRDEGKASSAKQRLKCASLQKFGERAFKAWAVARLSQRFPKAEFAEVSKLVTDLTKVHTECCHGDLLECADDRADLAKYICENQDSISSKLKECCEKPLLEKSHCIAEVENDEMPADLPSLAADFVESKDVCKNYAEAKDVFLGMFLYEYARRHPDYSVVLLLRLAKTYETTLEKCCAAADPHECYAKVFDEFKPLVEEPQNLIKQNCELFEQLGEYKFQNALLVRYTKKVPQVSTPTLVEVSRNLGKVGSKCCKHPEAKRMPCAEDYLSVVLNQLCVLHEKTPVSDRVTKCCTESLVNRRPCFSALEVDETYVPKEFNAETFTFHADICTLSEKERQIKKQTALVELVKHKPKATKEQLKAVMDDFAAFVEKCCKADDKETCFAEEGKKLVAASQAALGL
UniProt P35579: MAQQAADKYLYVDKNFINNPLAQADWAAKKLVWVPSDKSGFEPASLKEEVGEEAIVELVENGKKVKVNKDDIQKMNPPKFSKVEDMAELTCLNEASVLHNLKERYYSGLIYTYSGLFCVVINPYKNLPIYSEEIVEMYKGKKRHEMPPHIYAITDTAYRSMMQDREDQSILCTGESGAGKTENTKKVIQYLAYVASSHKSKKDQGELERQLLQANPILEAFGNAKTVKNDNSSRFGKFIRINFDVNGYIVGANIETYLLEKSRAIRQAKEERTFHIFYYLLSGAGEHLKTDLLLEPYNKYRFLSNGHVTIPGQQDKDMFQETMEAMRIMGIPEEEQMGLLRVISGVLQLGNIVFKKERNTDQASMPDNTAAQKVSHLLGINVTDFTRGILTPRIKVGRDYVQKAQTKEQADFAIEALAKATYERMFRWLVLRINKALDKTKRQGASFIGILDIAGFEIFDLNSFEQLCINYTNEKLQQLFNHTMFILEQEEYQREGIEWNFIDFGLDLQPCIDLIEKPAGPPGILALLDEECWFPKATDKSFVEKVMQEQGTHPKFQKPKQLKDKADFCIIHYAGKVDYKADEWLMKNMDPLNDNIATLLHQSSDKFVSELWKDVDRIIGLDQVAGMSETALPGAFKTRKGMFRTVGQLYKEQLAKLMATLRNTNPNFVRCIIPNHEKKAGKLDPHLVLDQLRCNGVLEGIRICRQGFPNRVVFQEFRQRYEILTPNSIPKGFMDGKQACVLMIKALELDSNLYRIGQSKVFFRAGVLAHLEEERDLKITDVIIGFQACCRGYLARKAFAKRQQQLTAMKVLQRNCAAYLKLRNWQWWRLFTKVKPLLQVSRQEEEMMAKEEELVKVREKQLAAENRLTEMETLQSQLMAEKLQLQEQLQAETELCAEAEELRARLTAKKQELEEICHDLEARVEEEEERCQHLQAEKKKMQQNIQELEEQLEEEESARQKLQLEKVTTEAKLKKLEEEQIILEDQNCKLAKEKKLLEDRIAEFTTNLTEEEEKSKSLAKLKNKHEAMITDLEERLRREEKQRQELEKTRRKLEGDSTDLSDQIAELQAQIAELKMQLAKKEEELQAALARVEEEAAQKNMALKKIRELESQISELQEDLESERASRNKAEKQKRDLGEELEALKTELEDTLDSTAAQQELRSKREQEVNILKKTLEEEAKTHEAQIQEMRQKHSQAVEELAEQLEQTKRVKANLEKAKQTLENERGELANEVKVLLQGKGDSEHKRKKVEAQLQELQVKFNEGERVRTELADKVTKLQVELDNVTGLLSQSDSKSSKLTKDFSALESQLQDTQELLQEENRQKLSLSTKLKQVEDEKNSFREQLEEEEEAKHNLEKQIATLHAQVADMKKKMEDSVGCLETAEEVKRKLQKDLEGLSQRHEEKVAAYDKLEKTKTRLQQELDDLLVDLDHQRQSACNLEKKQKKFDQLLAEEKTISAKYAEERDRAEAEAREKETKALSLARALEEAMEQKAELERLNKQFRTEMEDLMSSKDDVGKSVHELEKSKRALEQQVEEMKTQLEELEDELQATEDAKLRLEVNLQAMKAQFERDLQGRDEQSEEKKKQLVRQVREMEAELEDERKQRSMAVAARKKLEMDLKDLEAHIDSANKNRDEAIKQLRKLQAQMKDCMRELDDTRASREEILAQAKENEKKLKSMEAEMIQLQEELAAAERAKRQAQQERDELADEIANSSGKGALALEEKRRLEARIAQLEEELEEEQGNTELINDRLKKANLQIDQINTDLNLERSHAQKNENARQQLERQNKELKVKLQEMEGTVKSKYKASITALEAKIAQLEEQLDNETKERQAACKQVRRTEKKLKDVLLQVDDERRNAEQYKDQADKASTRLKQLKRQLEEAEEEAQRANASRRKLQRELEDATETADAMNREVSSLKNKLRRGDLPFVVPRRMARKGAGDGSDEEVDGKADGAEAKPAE

B1: sp|P81605|DCD_HUMAN (protein, UniProt P81605 20-110)
chain: YDPEAASAPGSGNPCHEASAAQKENAGEDPGLARQAPKPRKQRSSLLEKGLDGAKKAVGGLGKLGKDAVEDLESVGKGAVHDVKDVLDSVL
B2: sp|P14923|PLAK_HUMAN (protein, UniProt P14923 1-745)
chain: MEVMNLMEQPIKVTEWQQTYTYDSGIHSGANTCVPSVSSKGIMEEDEACGRQYTLKKTTTYTQGVPPSQGDLEYQMSTTARAKRVREAMCPGVSGEDSSLLLATQVEGQATNLQRLAEPSQLLKSAIVHLINYQDDAELATRALPELTKLLNDEDPVVVTKAAMIVNQLSKKEASRRALMGSPQLVAAVVRTMQNTSDLDTARCTTSILHNLSHHREGLLAIFKSGGIPALVRMLSSPVESVLFYAITTLHNLLLYQEGAKMAVRLADGLQKMVPLLNKNNPKFLAITTDCLQLLAYGNQESKLIILANGGPQALVQIMRNYSYEKLLWTTSRVLKVLSVCPSNKPAIVEAGGMQALGKHLTSNSPRLVQNCLWTLRNLSDVATKQEGLESVLKILVNQLSVDDVNVLTCATGTLSNLTCNNSKNKTLVTQNSGVEALIHAILRAGDKDDITEPAVCALRHLTSRHPEAEMAQNSVRLNYGIPAIVKLLNQPNQWPLVKATIGLIRNLALCPANHAPLQEAAVIPRLVQLLVKAHQDAQRHVAAGTQQPYTDGVRMEEIVEGCTGALHILARDPMNRMEIFRLNTIPLFVQLLYSSVENIQRVAAGVLCELAQDKEAADAIDAEGASAPLMELLHSRNEGTATYAAAVLFRISEDKNPDYRKRVSVELTNSLFKHDPAAWEAAQSMIPINEPYGDDMDATYRPMYSSDVPLDPLEMHMDMDGDYPIDTYSDGLRPPYPTADHMLA
B3: sp|P12273|PIP_HUMAN (protein, UniProt P12273 29-146)
chain: QDNTRKIIIKNFDIPKSVRPNDEVTAVLAVQTELKECMVVKTYLISSIPLQGAFNYKYTACLCDDNPKTFYWDFYTNRTVQIAAVVDVIRELGICPDDAAVIPIKNNRFYTIEILKVE
B4: sp|P29508|SPB3_HUMAN (protein, UniProt P29508 1-390)
chain: MNSLSEANTKFMFDLFQQFRKSKENNIFYSPISITSALGMVLLGAKDNTAQQIKKVLHFDQVTENTTGKAATYHVDRSGNVHHQFQKLLTEFNKSTDAYELKIANKLFGEKTYLFLQEYLDAIKKFYQTSVESVDFANAPEESRKKINSWVESQTNEKIKNLIPEGNIGSNTTLVLVNAIYFKGQWEKKFNKEDTKEEKFWPNKNTYKSIQMMRQYTSFHFASLEDVQAKVLEIPYKGKDLSMIVLLPNEIDGLQKLEEKLTAEKLMEWTSLQNMRETRVDLHLPRFKVEESYDLKDTLRTMGMVDIFNGDADLSGMTGSRGLVLSGVLHKAFVEVTEEGAEAAAATAVVGFGSSPTSTNEEFHCNHPFLFFIRQNKTNSILFYGRFSSP
B5: sp|P31151|S10A7_HUMAN (protein, UniProt P31151 1-101)
chain: MSNTQAERSIIGMIDMFHKYTRRDDKIEKPSLLTMMKENFPNFLSACDKKGTNYLADVFEKKDKNEDKKIDFSEFLSLLGDIATDYHKQSHGAAPCSGGSQ
B6: sp|P06702|S10A9_HUMAN (protein, UniProt P06702 1-114)
chain: MTCKMSQLERNIETIINTFHQYSVKLGHPDTLNQGEFKELVRKDLQNFLKKENKNEKVIEHIMEDLDTNADKQLSFEEFIMLMARLTWASHEKMHEGDEGPGHHHKPGLGEGTP

Molecular target: Glycogen synthase kinase-3β (human (endogenous in MCF-7ADR, 293T, breast cancer tissue)) (UniProt P49841)
Assay: affinity purification with mass spectrometry; GSK3β immunoprecipitated from MCF-7ADR lysate with anti-GSK3β antibody or IgG; LC-MS/MS, Mascot 2.3; candidates with no unique peptide in the IgG sample

binding, binds:
sp|Q9ULV4|COR1C_HUMAN (from UniProt Q9ULV4 1-474)
sp|P68871|HBB_HUMAN (from UniProt P68871 1-147)
tr|A0A087WVQ9|A0A087WVQ9_HUMAN (from UniProt P68104 1-462)
tr|H0YH81|H0YH81_HUMAN (from UniProt P06576 48-529)
sp|P01040|CYTA_HUMAN (from UniProt P01040 1-98)
sp|Q02413|DSG1_HUMAN (from UniProt Q02413 50-1049)
tr|F8VPF3|F8VPF3_HUMAN (from UniProt P60660 1-151)
tr|A0A0C4DGB6|A0A0C4DGB6_HUMAN (from UniProt P02768 25-609)
sp|P15924|DESP_HUMAN (from UniProt P15924 1-2871)
sp|P35579|MYH9_HUMAN (from UniProt P35579 1-1960)
B1
B2
B3
B4
B5
B6

These are yes or no findings as the source states them, for the method shown. In cells and extracts the contact can be indirect. A yes stands for co-enrichment or nearness to the bait. Other partners may have been found.
